Measured values from patent publication US20210038547A1, “NEW USES AND APPLICATIONS OF DICARBOXYLIC ACIDS” (JEMYLL LIMITED, priority 2017, published 2021).

Tested on: oat
Assay: Hydroponic oat grown with C12 in the water medium: grain composition
Experimental: Hydroponic barley and oat grass was growth in fodder sprouting chambers at 21.5 to 23.5° C., with humidity of 65±5% and water temperature between 20° and 22° C. Grains were soaked in water until fully saturated, then drained and placed in trays or troughs, to facilitate sprouting, for 5 to 8 days. The grains were kept moist during this period. Grains were initially washed with a sterilizing solution to help minimize the risk of mold. Grass were provided with […] from day 3. C12 (0.1% as acid, 14.9% as potassium salt, 60% as sodium salt, and 25% as calcium salt) was added to the water medium in different concentrations, varying from 0%, to 2.5%, 5%, 10%, 15% and 20%. We measured grain composition at 10 g C12 in 1 L of water.

Structure (SMILES): O=C(O)CCCCCCCCCCC(=O)O [C12, dodecanedioic acid]
- C12% (content in oat grain, 10 g C12/L of water (10% C12)): 3.12 ± 0.47%
- C12 in the water at which the concentration of C12 in oat grains plateaus (increasing C12 in irrigation water, FIG. 4): 10 g/L
